{"source": "paper PMC7212426", "binders": {"B1": {"name": "WD repeat and HMG-box DNA binding protein 1 (protein, UniProt O75717 1-1129)", "chain": "MPATRKPMRYGHTEGHTEVCFDDSGSFIVTCGSDGDVRIWEDLDDDDPKFINVGEKAYSCALKSGKLVTAVSNNTIQVHTFPEGVPDGILTRFTTNANHVVFNGDGTKIAAGSSDFLVKIVDVMDSSQQKTFRGHDAPVLSLSFDPKDIFLASASCDGSVRVWQISDQTCAISWPLLQKCNDVINAKSICRLAWQPKSGKLLAIPVEKSVKLYRRESWSHQFDLSDNFISQTLNIVTWSPCGQYLAAGSINGLIIVWNVETKDCMERVKHEKGYAICGLAWHPTCGRISYTDAEGNLGLLENVCDPSGKTSSSKVSSRVEKDYNDLFDGDDMSNAGDFLNDNAVEIPSFSKGIINDDEDDEDLMMASGRPRQRSHILEDDENSVDISMLKTGSSLLKEEEEDGQEGSIHNLPLVTSQRPFYDGPMPTPRQKPFQSGSTPLHLTHRFMVWNSIGIIRCYNDEQDNAIDVEFHDTSIHHATHLSNTLNYTIADLSHEAILLACESTDELASKLHCLHFSSWDSSKEWIIDLPQNEDIEAICLGQGWAAAATSALLLRLFTIGGVQKEVFSLAGPVVSMAGHGEQLFIVYHRGTGFDGDQCLGVQLLELGKKKKQILHGDPLPLTRKSYLAWIGFSAEGTPCYVDSEGIVRMLNRGLGNTWTPICNTREHCKGKSDHYWVVGIHENPQQLRCIPCKGSRFPPTLPRPAVAILSFKLPYCQIATEKGQMEEQFWRSVIFHNHLDYLAKNGYEYEESTKNQATKEQQELLMKMLALSCKLEREFRCVELADLMTQNAVNLAIKYASRSRKLILAQKLSELAVEKAAELTATQVEEEEEEEDFRKKLNAGYSNTATEWSQPRFRNQVEEDAEDSGEADDEEKPEIHKPGQNSFSKSTNSSDVSAKSGAVTFSSQGRVNPFKVSASSKEPAMSMNSARSTNILDNMGKSSKKSTALSRTTNNEKSPIIKPLIPKPKPKQASAASYFQKRNSQTNKTEEVKEENLKNVLSETPAICPPQNTENQRPKTGFQMWLEENRSNILSDNPDFSDEADIIKEGMIRFRVLSTEERKVWANKAKGETASEGTEAKKRKRVVDESDETENQEEKAKENLNLSKKQKPLDFSTNQKLSAFAFKQE"}}, "molecular_target": "microtubule-associated protein RP/EB family member 2 (human (endogenous in A549/DDP)) (UniProt Q15555)", "test": "co-IP; A549/DDP cells transfected with si-con or si-WDHD1, lysed with RIPA after 24 h; precipitated with anti-MAPRE2 (human IgG as control) overnight at 4°C, protein A + G agarose; Western blot for ubiquitin, WDHD1 and MAPRE2", "note": "No constants are given. Whether binding was seen depends on the method and setting. Binding seen in cells or lysates may run through a third protein. Some binding calls cover weakened binding; strength is not graded here.", "data": [{"binder": "B1", "values": [{"measurement": "binding", "value": "binds"}]}]}
